Reference: patent US20030166531A1, “Methods for modulating an immune response by modulating the interaction between CTLA4 and PP2A” (Genetics Institute, Inc., priority 2001, published 2003)
These are yes or no findings as the source states them, for the method shown. For some assays here: In cells and extracts the contact can be indirect. Some entries that bind do so weakly or less than the wild type.

Sequences of proteins named here, by UniProt entry; tags and fusion partners are left off. Residues count along the entry.
UniProt P16410, residues 36-223: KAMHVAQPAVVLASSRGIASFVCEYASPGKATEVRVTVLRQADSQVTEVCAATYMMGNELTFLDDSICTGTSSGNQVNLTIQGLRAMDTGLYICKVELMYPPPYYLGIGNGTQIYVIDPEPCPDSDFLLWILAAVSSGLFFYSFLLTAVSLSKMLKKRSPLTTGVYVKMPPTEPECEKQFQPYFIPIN
UniProt P10747, residues 19-220: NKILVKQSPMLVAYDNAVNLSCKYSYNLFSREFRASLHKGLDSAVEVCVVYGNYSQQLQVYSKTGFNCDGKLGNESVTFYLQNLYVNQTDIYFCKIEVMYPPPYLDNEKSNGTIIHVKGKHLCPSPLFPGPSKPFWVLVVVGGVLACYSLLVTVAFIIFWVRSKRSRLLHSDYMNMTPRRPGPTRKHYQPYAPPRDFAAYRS
UniProt P30153, residues 2-589: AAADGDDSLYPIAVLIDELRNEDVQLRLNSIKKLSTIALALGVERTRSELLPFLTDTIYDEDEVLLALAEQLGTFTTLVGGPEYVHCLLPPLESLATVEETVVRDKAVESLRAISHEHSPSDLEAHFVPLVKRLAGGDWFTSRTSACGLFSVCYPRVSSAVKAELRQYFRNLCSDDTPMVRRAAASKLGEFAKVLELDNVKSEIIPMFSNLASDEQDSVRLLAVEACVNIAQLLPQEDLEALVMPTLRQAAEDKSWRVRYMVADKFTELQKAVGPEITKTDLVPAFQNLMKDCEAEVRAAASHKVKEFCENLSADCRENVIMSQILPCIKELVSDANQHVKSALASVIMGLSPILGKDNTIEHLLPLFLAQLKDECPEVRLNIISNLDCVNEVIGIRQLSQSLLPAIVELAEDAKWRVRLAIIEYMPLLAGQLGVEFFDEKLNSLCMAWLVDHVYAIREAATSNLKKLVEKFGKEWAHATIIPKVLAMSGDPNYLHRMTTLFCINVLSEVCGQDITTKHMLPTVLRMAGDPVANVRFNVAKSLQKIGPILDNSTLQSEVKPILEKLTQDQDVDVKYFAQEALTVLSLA

How the values were obtained:
[1] = target: wild type CTLA4 expressed in doxycycline-induced transfected Jurkat T cells (UniProt P16410); assay: co-immunoprecipitation from Jurkat cell lysates
[2] = target: wild type CTLA4 expressed in doxycycline-induced transfected Jurkat T cells (UniProt P16410); assay: co-immunoprecipitation from Jurkat cells, time course after SEE and APCs
[3] = target: wild type CTLA4 expressed in doxycycline-induced transfected Jurkat T cells (UniProt P16410); assay: immunoprecipitation of PP2AA from transfected Jurkat cell lysates, blot for CTLA4
[4] = target: CD28 of parental Jurkat cells (E6.1 cells) (UniProt P10747); assay: pull-down of CD28 with B7.2Ig from parental Jurkat (E6.1) lysates, blot with anti-PP2AA
[5] = target: wild type CTLA4 expressed in doxycycline-induced transfected Jurkat T cells (UniProt P16410); assay: immunoprecipitation of PP2AA from Jurkat lysates normalized for total CTLA4, blot for CTLA4

binding [1]: binds
binding [2]: binds
binding [3]: binds
binding [4]: binds
binding [5]: binds
Substance: endogenous PP2AA (65 kD regulatory subunit of PP2A) of Jurkat T cells (from UniProt P30153 2-589)
